Laboratory results as given in PubChem BioAssay AID248 (DTP/NCI, 2004).
The list shows only some results of the screen, not a fair sample: it is rich in T/C values a quarter to a half above the control, in often repeated tests (any T/C) and in doses without a T/C. Other doses and runs of a compound stand elsewhere. T/C gives the treated animals as a percentage of the vehicle group. Some entries give survivors of the animals treated and no T/C: the source holds a T/C of zero for them, seemingly a mark for toxic or unscored doses. Some survivor counts are full or nearly so, which does not show that the dose was tolerated: the source hardly ever lists a survival T/C far under the control, and the zero likely stands for such cases as well. Survivors were counted at the toxicity check, usually on the fifth day, unless a day is given; later deaths do not show. Schedules are NCI's codes, taken here to give the interval after Q, in days (D) or hours (H), and the number of doses after X. Some entries hold several experiments; their values stand side by side, smallest first. Where survival is the endpoint, the PubChem record calls one and a half times the control and up active, and a quarter to a half above the control has no call in these data; cut-offs in other NCI protocols can differ.

System: L1210 leukemia ip in BDF1 mice, survival T/C
Test: NCI In Vivo Anticancer Drug Screen. Data for tumor model L1210 Leukemia (intraperitoneal) in B6D2F1 (BDF1) mice
Conditions: T/C endpoint: mean survival time, higher T/C = longer survival
[1] = dose: 200.0 mg/kg/injection, schedule: Q04DX003 (ip), vehicle: Klucel (hydroxypropylcellulose) (HPC)
[2] = dose: 400.0 mg/kg/injection, schedule: Q04DX003 (ip), vehicle: Klucel (hydroxypropylcellulose) (HPC)
[3] = dose: 400.0 mg/kg/injection, schedule: Q04DX003 (ip), vehicle: saline with Tween-80
[4] = dose: 100.0 mg/kg/injection, schedule: Q01DX009 (ip), vehicle: Klucel (hydroxypropylcellulose) (HPC)
[5] = dose: 400.0 mg/kg/injection, schedule: Q01DX009 (ip), vehicle: Klucel (hydroxypropylcellulose) (HPC)
[6] = dose: 400.0 mg/kg/injection, schedule: Q04DX002 (ip), vehicle: saline with Tween-80
[7] = dose: 100.0 mg/kg/injection, schedule: Q01DX001 (ip), vehicle: saline
[8] = dose: 200.0 mg/kg/injection, schedule: Q01DX001 (ip), vehicle: saline
[9] = dose: 400.0 mg/kg/injection, schedule: Q01DX001 (ip), vehicle: saline
[10] = dose: 400.0 mg/kg/injection, schedule: Q01DX009 (ip), vehicle: saline with Tween-80
[11] = dose: 200.0 mg/kg/injection, schedule: Q01DX001 (ip), vehicle: carboxymethylcellulose (CMC)
[12] = dose: 400.0 mg/kg/injection, schedule: Q01DX001 (ip), vehicle: carboxymethylcellulose (CMC)
[13] = dose: 100.0 mg/kg/injection, schedule: Q04DX003 (ip), vehicle: saline
[14] = dose: 200.0 mg/kg/injection, schedule: Q04DX003 (ip), vehicle: saline
[15] = dose: 400.0 mg/kg/injection, schedule: Q04DX003 (ip), vehicle: saline
[16] = dose: 150.0 mg/kg/injection, schedule: Q01DX001 (ip), vehicle: other
[17] = dose: 300.0 mg/kg/injection, schedule: Q01DX001 (ip), vehicle: other
[18] = dose: 200.0 mg/kg/injection, schedule: Q01DX009 (ip), vehicle: Klucel (hydroxypropylcellulose) (HPC)

O=[N+]([O-])c1ccc2nocc2c1
survivor count [1]: 0 of 3
survivor count [2]: 0 of 3

CCCC(Br)C(=O)OCC (configuration not stated)
survivor count [3]: 6 of 6

C=C1C(=O)OCC2C(C(=O)O)=CC3C(C)C(C)=CC123 (configuration not stated)
survivor count (dose: 80.0 mg/kg/injection, schedule: Q01DX009 (ip), vehicle: saline with Tween-80): 5 of 6

OC12CC(C(F)(F)F)(C(F)(F)F)OC1(O)CC(C(F)(F)F)(C(F)(F)F)O2 (configuration not stated)
survivor count [3]: 0 of 6

CN(CCO)Cc1ccc(Cl)cc1
survivor count (dose: 300.0 mg/kg/injection, schedule: Q01DX015 (ip), vehicle: saline): 1 of 6

N#CCc1ccc([N+](=O)[O-])cc1
survivor count (dose: 50.0 mg/kg/injection, schedule: Q01DX009 (ip), vehicle: Klucel (hydroxypropylcellulose) (HPC)): 2 of 6
survivor count (dose: 100.0 mg/kg/injection, schedule: Q04DX003 (ip), vehicle: Klucel (hydroxypropylcellulose) (HPC)): 0 of 6
survivor count [1]: 0 of 6
survivor count [2]: 0 of 6

Cc1ccc(S(=O)(=O)ON=C2c3ccccc3-c3ccccc32)cc1
T/C [4]: 125 % of control
survivor count [5]: 6 of 6

CCOC(=O)C1(CCCN2C(=O)c3ccccc3C2=O)CC(C(=O)OCC)(C(=O)OCC)CCC1=O (configuration not stated)
survivor count [6]: 3 of 3

CCC[CH2][Sn]([CH2]CCC)([CH2]CCC)[S]C(=S)NCCNC(=S)[S][Sn]([CH2]CCC)([CH2]CCC)[CH2]CCC
survivor count (dose: 20.0 mg/kg/injection, schedule: Q01DX001 (ip), vehicle: saline): 1 of 4
survivor count (dose: 40.0 mg/kg/injection, schedule: Q01DX001 (ip), vehicle: saline): 2 of 4
survivor count (dose: 50.0 mg/kg/injection, schedule: Q01DX015 (ip), vehicle: carboxymethylcellulose (CMC)): 3 of 6
survivor count (dose: 100.0 mg/kg/injection, schedule: Q01DX015 (ip), vehicle: carboxymethylcellulose (CMC)): 0 of 6

N#CC(C#N)=Cc1ccc(O)cc1
survivor count [7]: 2 of 4
survivor count [8]: 0 of 4
survivor count [9]: 0 of 4

CC(C)C(O)C1(C)CC1 (configuration not stated)
survivor count [10]: 6 of 6

CC1CC2(C)C(CC1=O)CC(C)C1C2CCC2(C)C1CCC2(C)O (configuration not stated)
survivor count [10]: 4 of 6

O=C1C(Br)=C(Br)c2ccccc21
survivor count [11]: 1 of 4
survivor count [12]: 2 of 4

Clc1cccc(C[N+]23CC[N+](Cc4cccc(Cl)c4)(CC2)C3)c1
survivor count [9]: 0 of 4

c1cnc2cc3oc4ccccc4c3cc2c1
survivor count [13]: 3 of 6
survivor count [14]: 0 of 6
survivor count [15]: 0 of 6

c1ccc2c[n+]3cc4ccccc4cc3cc2c1
survivor count (dose: 55.0 mg/kg/injection, schedule: Q01DX009 (ip), vehicle: saline): 1 of 6
survivor count (dose: 80.0 mg/kg/injection, schedule: Q01DX009 (ip), vehicle: saline): 0 of 6
survivor count [13]: 0 of 6
survivor count [14]: 0 of 6
survivor count [15]: 1 of 6

COc1ccccc1CN1CCCN(Cc2ccccc2OC)C1c1ccc(N(CCCl)CCCl)cc1C
survivor count (dose: 400.0 mg/kg/injection, schedule: Q01DX009 (ip), vehicle: saline): 5 of 6
survivor count (dose: 800.0 mg/kg/injection, schedule: Q01DX001 (ip), vehicle: saline): 6 of 6
survivor count (dose: 800.0 mg/kg/injection, schedule: Q01DX009 (ip), vehicle: saline): 0 of 6

C=CCCCCCCCCC(=O)O (tested in a mixture with another compound)
survivor count [11]: 0 of 6
survivor count [12]: 0 of 6

C=CCC1(CCCCC)C(=O)NC(=S)NC1=O
survivor count (dose: 300.0 mg/kg/injection, schedule: Q01DX001 (ip), vehicle: saline): 3 of 6

COC(C)C(Br)C(=O)O (configuration not stated)
survivor count [15]: 4 of 6

NNC(=S)Nc1ccccc1F
survivor count (dose: 75.0 mg/kg/injection, schedule: Q01DX001 (ip), vehicle: other): 0 of 6
survivor count [16]: 0 of 6
survivor count [17]: 0 of 6

O=S1(=O)C=C(Cl)C(Cl)C1 (configuration not stated)
survivor count (dose: 100.0 mg/kg/injection, schedule: Q01DX009 (ip), vehicle: saline): 5 of 6
survivor count [14]: 1 of 6
survivor count [9]: 2 of 6

CN(NCc1ccccc1)C(=N)N
survivor count [8]: 1 of 6
survivor count [9]: 0 of 6

CCC[CH2][Sn]([CH2]CCC)([n]1cncn1)[n]1cncn1
survivor count (dose: 100.0 mg/kg/injection, schedule: Q04DX002 (ip), vehicle: saline with Tween-80): 0 of 3
survivor count (dose: 100.0 mg/kg/injection, schedule: Q04DX003 (ip), vehicle: saline with Tween-80): 0 of 6
survivor count (dose: 200.0 mg/kg/injection, schedule: Q04DX002 (ip), vehicle: saline with Tween-80): 0 of 3
survivor count (dose: 200.0 mg/kg/injection, schedule: Q04DX003 (ip), vehicle: saline with Tween-80): 0 of 6
survivor count [6]: 0 of 3
survivor count [3]: 0 of 6

FC1(F)C=C(c2ccccc2)C1(Cl)Cl
survivor count [18]: 6 of 6
survivor count [5]: 3 of 6
survivor count [2]: 3 of 6

CC(Oc1cc(Cl)c(Cl)cc1Cl)C(=O)OCCCc1ccccn1 (configuration not stated)
T/C [18]: 125 % of control
survivor count [5]: 1 of 3 and 3 of 6

CN(C)P(=O)(N(C)C)N1CC1
T/C (dose: 60.0 mg/kg/injection, schedule: Q01DX001 (ip), vehicle: saline): 126 % of control
T/C (dose: 120.0 mg/kg/injection, schedule: Q01DX001 (ip), vehicle: saline): 144 % of control
survivor count (dose: 240.0 mg/kg/injection, schedule: Q01DX001 (ip), vehicle: saline): 6 of 6

NC(=S)N/N=C(\c1ccccc1)c1cccc2ccccc12
survivor count [4]: 0 of 6
survivor count (dose: 200.0 mg/kg/injection, schedule: Q04DX002 (ip), vehicle: Klucel (hydroxypropylcellulose) (HPC)): 1 of 3
survivor count (dose: 400.0 mg/kg/injection, schedule: Q04DX002 (ip), vehicle: Klucel (hydroxypropylcellulose) (HPC)): 0 of 3

CCCCCCC(=O)N1CCOCC1
survivor count (dose: 200.0 mg/kg/injection, schedule: Q04DX002 (ip), vehicle: saline): 2 of 3
survivor count (dose: 400.0 mg/kg/injection, schedule: Q04DX002 (ip), vehicle: saline): 0 of 3

Nc1c(F)c(N)c(F)c(F)c1F
survivor count [7]: 3 of 6
survivor count [8]: 0 of 6
survivor count [9]: 0 of 6

Cc1cc[n+](Cc2ccccc2Cl)cc1
survivor count (dose: 50.0 mg/kg/injection, schedule: Q01DX001 (ip), vehicle: saline): 1 of 6
survivor count [7]: 0 of 6
survivor count [8]: 0 of 6

CCOP(=O)(OCC)C1=C(P(=O)(OCC)OCC)C(F)(F)C1(F)F
survivor count [16]: 0 of 6
survivor count [17]: 0 of 6

N/N=C(\N)c1nn(C2OC(CO)C(O)C2O)c2ncnc(N)c12 (configuration not stated)
T/C (dose: 100.0 mg/kg/injection, schedule: Q01DX005 (ip), vehicle: saline): 125 % of control
T/C (dose: 166.0 mg/kg/injection, schedule: Q01DX005 (ip), vehicle: saline): 131 % of control
